These results are taken from article PMC7819943, “Rice protein-binding microarrays: a tool to detect cis-acting elements near promoter regions in rice”.

Chains of the proteins cited; added tags and fusions are not shown.
UniProt Q0JBA9, entry or part of it: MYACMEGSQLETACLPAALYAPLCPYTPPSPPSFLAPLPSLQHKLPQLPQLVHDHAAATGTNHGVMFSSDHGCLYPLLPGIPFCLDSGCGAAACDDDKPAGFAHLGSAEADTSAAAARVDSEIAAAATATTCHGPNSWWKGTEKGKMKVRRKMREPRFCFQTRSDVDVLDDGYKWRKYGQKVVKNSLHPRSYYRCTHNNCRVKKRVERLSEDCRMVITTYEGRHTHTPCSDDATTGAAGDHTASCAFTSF

This is one part of the list.

The assay concerns the target OsWRKY34 (Oryza sativa, UniProt Q0JBA9 1-250). As to the kind of experiment: protein-binding microarray (RPBM); PBS, 2% BSA, 51.3 ng/ul salmon testes DNA, 50 uM zinc acetate, 200 nM TF, 25 C, 1 h; high values mean tight binding. The following applies: protein: recombinant; tags: N-terminal polyhistidine and DsRed monomer fusion (pET32a); label: CyDye5-dUTP incorporated in the synthesized complementary strand; 3' TTTTT single-stranded linker to array surface; dsDNA, one strand shown. The procedure, abridged: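 The binding signal is fluorescence intensity per feature, in arbitrary units, read on an Axon 4000B scanner. Polyhistidine- and DsRed-tagged transcription factors (N-terminal fusions) from E. coli BL21-CodonPlus were purified on Ni–NTA and applied at 200 nM for 1 h at 25 °C to a double-stranded, BSA-blocked custom Agilent array in buffer with 50 µM zinc acetate.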
“TCCAGGCCATGCGTTTTTTTCTTTCCCTCCGAATTGCTTACGGAGTCACCTAGTGCAG”: the binding signal was 8830 fluorescence intensity (a.u.).

Regarding “CAAGTAGCCACAAACTGTCCTTGTGTTCCCCTTGCACGTCCGGAGTCACCTAGTGCAG”, the binding signal is 8880 fluorescence intensity (a.u.). As to “GCCATGTATTATAATTCTTTACACAAAATGTAGCAAGCAACGGAGTCACCTAGTGCAG”, the binding signal was 9370 fluorescence intensity (a.u.). For “TCCTTCCCTAAATGTTTGACGCCGTTGACTTTTTTAAACACGGAGTCACCTAGTGCAG”, the binding signal is 16600 fluorescence intensity (a.u.). The figure for “ATTTCTTCCATTTTAAGTTTATTTTATCATCTTTGTATATCGGAGTCACCTAGTGCAG” is 10500 fluorescence intensity (a.u.); for “TTTTCCACTTCTCACTCTCCATCTTCTTCAACAGTTGCACCGGAGTCACCTAGTGCAG” it is 9820 fluorescence intensity (a.u.).

For the sequence “CTTAGACTGTGTTCTTTTCCATGGGTTCCAACCCACCCCTCGGAGTCACCTAGTGCAG”, the binding signal is 9210 fluorescence intensity (a.u.). As for “GGGTCTAGATATTTTCATATATGGTATATTTATTATGCAACGGAGTCACCTAGTGCAG”, the binding signal was 10500 fluorescence intensity (a.u.). Take “GGTGGGTTCTCTTCTTCTTCTTCTCCTTGGAGCTCAGTTCCGGAGTCACCTAGTGCAG”: the binding signal was 14700 fluorescence intensity (a.u.). Regarding “GTGCTCCCACATCGTCCGCCGCTAGATATTTTACTCTACTCGGAGTCACCTAGTGCAG”, the binding signal was 9600 fluorescence intensity (a.u.).

Regarding “TTTGGTGTTGGTATTATTGGGGTTTGAAAGAGTTAATTAGCGGAGTCACCTAGTGCAG”, the binding signal is 12000 fluorescence intensity (a.u.). Regarding “TTTGCCTCCTCATCTCCTTTACGTGGGCTTTTCTATCCCACGGAGTCACCTAGTGCAG”, the binding signal is 8540 fluorescence intensity (a.u.). As for “TTCTGAGTGTATAATTAATGTTTATGTGGTCACGTACTTGCGGAGTCACCTAGTGCAG”, the binding signal is 8840 fluorescence intensity (a.u.). In the case of “GCTTTTTCTTTGTTTTTTTTTTTGGCTCGAGTGCGCCTTCCGGAGTCACCTAGTGCAG” it was 11000 fluorescence intensity (a.u.); in that of “GTTTAGATTCGTTGTACTTAGATTATGTTACATCTCATTCCGGAGTCACCTAGTGCAG”, 8050 fluorescence intensity (a.u.).

With “ATGCATCACAGCCACCGGTGCGTGGCCCATCTCCAATTCTCGGAGTCACCTAGTGCAG”, the binding signal is 8780 fluorescence intensity (a.u.). As for “CCATTATATGCCTCTGAATTTTTCACACGTCCACGATTTGCGGAGTCACCTAGTGCAG”, the binding signal is 8830 fluorescence intensity (a.u.). In the case of “CAAAGAAATCCAAGCACCGCCGCCTCTCTCTGCTCTACCCCGGAGTCACCTAGTGCAG” it was 8450 fluorescence intensity (a.u.); in that of “TACCAACCACCGTCCACGAGTGTGCCGCCGCCGCCGCCTCCGGAGTCACCTAGTGCAG”, 9860 fluorescence intensity (a.u.); in that of “GTACTCACTAATAGCATTTTTTTCTTCTTTTTCTTTCTCTCGGAGTCACCTAGTGCAG”, 8830 fluorescence intensity (a.u.).

Turning to “GCTCTTTCTGTTGACCAAGCCACAGGCAGTTTGACATCAACGGAGTCACCTAGTGCAG”, the binding signal is 9530 fluorescence intensity (a.u.). As for “GTCGAAAGATTATATATTCAGGGTCGTTTGTCTCTTACATCGGAGTCACCTAGTGCAG”, the binding signal was 8250 fluorescence intensity (a.u.). Turning to “CTCTATGTGGATTTGTAGTAGTGTATATATATATATATATCGGAGTCACCTAGTGCAG”, the binding signal is 8700 fluorescence intensity (a.u.). As for “ATTAAAATTATTTCTCGAGCTCCGAAAATTTGCGAGAAATCGGAGTCACCTAGTGCAG”, the binding signal was 9620 fluorescence intensity (a.u.). “GGCTAATCAATGACTCTGACCTATTTGTCGATCTCTTATACGGAGTCACCTAGTGCAG”: the binding signal is 8260 fluorescence intensity (a.u.). “ATCAAAGTTTCCACTGTATGTTGACCATGTAAAGTCAACTCGGAGTCACCTAGTGCAG”: the binding signal is 9730 fluorescence intensity (a.u.).

For the sequence “CCGATCTGCTCCACCGCCACCGGCGCTCCGGGCGGACGGCCGGAGTCACCTAGTGCAG”, the binding signal was 8220 fluorescence intensity (a.u.).

With “GTTCGAAAAGTCGTGGGTTGTTCTTGACTTCTTGCCAGTGCGGAGTCACCTAGTGCAG”, the binding signal is 9060 fluorescence intensity (a.u.). The figure for “CGCTGTTGACTTTTTTAAAAATGTTTGACCGTTCATCTTACGGAGTCACCTAGTGCAG” is 33600 fluorescence intensity (a.u.); for “GCATCTCCACAGTCCACACTGTGCGCGCCATTCTTATCCTCGGAGTCACCTAGTGCAG” it is 14100 fluorescence intensity (a.u.).

In the case of “AAATGACTTTCTCGTCTTATGCTGACTTCATCTTCATTTTCGGAGTCACCTAGTGCAG”, the binding signal was 10300 fluorescence intensity (a.u.).

Regarding “TTTTCTCTTGCTGGTCTCCGTCTTCGTCTTCTCCTCCTCCCGGAGTCACCTAGTGCAG”, the binding signal was 8550 fluorescence intensity (a.u.). The figure for “TCATCTCAGTACTACTCATCTCTATTGGCTGTTTTCGACACGGAGTCACCTAGTGCAG” is 9400 fluorescence intensity (a.u.). On to “GAGTTTAATTTTTTTTTTGTGGTTGGTTGTATCGTGATACCGGAGTCACCTAGTGCAG”, for which the binding signal is 10100 fluorescence intensity (a.u.). The figure for “CTGTCCTGTCCGGCCCCTGGTTTTTGCTGCTGACTTATATCGGAGTCACCTAGTGCAG” is 11600 fluorescence intensity (a.u.); for “GCCTGGGTCTCATAACGATATCAATGTACTTCATCGATGCCGGAGTCACCTAGTGCAG” it is 8860 fluorescence intensity (a.u.); for “TTGGTTCGTGTCGTTCGCGCGCTTTCTCTCTCTCTCTCCTCGGAGTCACCTAGTGCAG” it is 14500 fluorescence intensity (a.u.). For the sequence “GAATATTCGGGTGTGTGTGTCTCCAGCAGTAGTTCTTCTCCGGAGTCACCTAGTGCAG”, the binding signal was 11300 fluorescence intensity (a.u.). Regarding “CTGTTCATTCTCCGGTAGCCATTTGTCCGTAGCACATAAACGGAGTCACCTAGTGCAG”, the binding signal was 12600 fluorescence intensity (a.u.).

Take “TCTGTTTCGCACTTGTATTTCAATAATGTGTTTTTTCTATCGGAGTCACCTAGTGCAG”: the binding signal was 8350 fluorescence intensity (a.u.).

As to “AATCACCACTTCATCAGCACCAGACACCAAACTGCCAAATCGGAGTCACCTAGTGCAG”, the binding signal was 8510 fluorescence intensity (a.u.). The figure for “TTATCCTTCGAGCACATATATAATCCGCACGCCGCCGCCTCGGAGTCACCTAGTGCAG” is 9940 fluorescence intensity (a.u.).
